This is one part of the list.
compound: COc1ccc(Cn2ccc3ccc(C(=O)NO)cc32)cc1; experiment: dose-dependent thermal stabilisation call (2D-TPP, DLPTP, 10% FDR) (binary (1 = stabilised)); higher = stabilised by the compound; settings: system: HL-60 intact cells; concentration range 0.04-10 µM

The chains behind the UniProt entries cited, without tags or fusion partners. Where a name states a change or a piece, a line headed by the entry shows the natural chain unless it says otherwise.
UniProt Q2TB10: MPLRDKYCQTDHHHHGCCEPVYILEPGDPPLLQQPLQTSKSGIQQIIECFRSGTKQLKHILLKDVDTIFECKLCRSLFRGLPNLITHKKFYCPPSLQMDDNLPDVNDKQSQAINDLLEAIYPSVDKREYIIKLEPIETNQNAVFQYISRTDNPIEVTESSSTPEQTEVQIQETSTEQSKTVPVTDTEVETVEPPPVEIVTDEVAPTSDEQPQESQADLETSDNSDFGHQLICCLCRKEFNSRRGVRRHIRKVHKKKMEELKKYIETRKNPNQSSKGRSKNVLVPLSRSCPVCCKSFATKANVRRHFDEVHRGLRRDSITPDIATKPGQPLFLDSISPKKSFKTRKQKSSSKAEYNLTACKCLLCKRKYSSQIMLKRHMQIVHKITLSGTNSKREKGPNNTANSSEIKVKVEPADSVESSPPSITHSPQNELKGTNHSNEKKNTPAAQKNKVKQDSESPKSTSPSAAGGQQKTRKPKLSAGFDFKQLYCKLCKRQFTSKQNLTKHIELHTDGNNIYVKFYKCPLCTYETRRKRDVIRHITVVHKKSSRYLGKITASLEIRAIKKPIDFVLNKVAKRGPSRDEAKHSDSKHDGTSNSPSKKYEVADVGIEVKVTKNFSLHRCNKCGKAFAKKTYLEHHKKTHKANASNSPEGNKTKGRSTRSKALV
UniProt Q6DD87: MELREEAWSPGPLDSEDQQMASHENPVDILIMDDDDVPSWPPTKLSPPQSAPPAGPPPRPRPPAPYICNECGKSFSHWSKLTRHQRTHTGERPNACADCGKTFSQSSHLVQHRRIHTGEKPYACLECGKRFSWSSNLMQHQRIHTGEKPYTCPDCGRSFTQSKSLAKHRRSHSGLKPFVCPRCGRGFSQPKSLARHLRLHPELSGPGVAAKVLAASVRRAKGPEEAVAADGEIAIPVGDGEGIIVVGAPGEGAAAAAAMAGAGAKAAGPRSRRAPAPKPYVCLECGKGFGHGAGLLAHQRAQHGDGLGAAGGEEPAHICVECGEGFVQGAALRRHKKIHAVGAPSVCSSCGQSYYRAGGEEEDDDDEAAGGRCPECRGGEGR
UniProt Q9UHR6: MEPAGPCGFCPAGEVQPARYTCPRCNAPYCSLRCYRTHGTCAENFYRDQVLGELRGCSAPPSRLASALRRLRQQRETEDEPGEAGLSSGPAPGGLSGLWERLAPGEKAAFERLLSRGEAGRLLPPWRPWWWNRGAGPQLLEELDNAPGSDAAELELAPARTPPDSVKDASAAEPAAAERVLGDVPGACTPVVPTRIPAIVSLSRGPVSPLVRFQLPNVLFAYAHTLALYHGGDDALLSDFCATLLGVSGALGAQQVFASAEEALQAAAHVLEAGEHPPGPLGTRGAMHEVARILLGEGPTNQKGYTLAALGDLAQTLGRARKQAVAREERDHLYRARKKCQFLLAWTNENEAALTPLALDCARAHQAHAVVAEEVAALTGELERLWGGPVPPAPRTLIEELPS
UniProt Q9UEG4: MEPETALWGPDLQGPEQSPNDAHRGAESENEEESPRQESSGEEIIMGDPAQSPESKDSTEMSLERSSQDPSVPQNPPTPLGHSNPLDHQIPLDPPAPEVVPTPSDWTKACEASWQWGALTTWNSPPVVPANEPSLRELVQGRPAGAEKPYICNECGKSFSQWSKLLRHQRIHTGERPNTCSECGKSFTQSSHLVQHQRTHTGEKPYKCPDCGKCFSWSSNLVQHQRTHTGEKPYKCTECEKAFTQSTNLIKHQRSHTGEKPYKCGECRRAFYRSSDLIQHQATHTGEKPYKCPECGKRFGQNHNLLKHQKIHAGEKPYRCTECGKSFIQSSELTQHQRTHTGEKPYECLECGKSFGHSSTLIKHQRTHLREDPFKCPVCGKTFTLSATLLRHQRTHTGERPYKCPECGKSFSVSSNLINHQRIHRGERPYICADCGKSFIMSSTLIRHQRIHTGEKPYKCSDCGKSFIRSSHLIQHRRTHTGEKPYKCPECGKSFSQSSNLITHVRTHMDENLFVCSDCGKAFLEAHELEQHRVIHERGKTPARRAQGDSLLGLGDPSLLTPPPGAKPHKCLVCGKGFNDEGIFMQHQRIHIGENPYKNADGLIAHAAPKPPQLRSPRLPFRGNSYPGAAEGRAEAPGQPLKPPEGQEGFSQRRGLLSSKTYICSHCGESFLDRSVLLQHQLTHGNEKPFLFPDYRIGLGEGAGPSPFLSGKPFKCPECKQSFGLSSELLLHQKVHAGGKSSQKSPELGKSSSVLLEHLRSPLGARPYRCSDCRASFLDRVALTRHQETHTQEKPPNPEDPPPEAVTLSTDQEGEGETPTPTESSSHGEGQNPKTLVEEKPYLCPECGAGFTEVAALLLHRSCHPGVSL
UniProt Q9P2E3: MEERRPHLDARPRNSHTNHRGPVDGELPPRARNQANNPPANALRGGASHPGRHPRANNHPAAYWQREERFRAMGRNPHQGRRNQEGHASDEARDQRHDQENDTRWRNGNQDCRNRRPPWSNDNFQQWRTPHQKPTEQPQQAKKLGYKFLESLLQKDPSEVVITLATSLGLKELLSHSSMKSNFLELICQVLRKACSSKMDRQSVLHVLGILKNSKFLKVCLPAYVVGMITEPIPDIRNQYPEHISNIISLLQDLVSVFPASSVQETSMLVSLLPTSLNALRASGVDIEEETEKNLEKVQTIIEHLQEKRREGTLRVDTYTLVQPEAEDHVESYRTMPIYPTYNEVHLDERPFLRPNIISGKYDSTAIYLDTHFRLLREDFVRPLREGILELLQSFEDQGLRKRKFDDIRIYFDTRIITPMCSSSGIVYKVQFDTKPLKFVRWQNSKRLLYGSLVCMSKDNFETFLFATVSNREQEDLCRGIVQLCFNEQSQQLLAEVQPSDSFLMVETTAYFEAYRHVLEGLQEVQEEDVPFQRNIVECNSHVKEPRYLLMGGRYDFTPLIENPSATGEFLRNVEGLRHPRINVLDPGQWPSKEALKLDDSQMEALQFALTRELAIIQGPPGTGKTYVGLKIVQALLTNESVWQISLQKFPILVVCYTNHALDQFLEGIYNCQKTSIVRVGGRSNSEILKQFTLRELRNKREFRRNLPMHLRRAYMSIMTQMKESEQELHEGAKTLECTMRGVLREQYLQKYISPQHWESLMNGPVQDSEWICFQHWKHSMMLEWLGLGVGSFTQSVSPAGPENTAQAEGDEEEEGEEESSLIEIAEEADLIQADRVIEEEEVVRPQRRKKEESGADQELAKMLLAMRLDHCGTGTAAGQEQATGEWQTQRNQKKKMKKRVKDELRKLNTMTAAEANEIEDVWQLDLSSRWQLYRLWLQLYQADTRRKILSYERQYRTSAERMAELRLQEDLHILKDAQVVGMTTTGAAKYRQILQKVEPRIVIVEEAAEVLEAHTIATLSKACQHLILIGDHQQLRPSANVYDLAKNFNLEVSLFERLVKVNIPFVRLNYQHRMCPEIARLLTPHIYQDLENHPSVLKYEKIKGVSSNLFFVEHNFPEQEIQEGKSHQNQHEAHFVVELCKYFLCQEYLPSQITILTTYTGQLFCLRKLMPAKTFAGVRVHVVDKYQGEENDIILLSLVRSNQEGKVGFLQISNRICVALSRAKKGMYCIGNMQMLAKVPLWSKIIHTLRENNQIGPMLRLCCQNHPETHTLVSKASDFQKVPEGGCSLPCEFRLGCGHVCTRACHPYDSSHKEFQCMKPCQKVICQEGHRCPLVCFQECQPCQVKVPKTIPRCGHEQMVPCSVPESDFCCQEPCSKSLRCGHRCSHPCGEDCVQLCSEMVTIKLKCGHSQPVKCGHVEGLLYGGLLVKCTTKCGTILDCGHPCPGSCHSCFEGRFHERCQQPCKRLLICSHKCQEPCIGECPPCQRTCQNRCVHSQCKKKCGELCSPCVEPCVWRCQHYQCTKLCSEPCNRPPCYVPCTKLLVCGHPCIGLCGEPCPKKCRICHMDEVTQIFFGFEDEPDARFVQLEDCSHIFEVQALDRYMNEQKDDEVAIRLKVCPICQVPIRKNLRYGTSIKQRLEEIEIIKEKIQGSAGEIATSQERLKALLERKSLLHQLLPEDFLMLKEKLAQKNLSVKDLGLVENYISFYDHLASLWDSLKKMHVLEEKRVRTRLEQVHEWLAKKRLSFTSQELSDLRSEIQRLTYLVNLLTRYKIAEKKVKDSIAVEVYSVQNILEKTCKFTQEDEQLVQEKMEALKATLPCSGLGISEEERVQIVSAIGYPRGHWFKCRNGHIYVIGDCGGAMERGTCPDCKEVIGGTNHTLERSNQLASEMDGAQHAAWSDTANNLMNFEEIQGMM
UniProt Q6ZN55: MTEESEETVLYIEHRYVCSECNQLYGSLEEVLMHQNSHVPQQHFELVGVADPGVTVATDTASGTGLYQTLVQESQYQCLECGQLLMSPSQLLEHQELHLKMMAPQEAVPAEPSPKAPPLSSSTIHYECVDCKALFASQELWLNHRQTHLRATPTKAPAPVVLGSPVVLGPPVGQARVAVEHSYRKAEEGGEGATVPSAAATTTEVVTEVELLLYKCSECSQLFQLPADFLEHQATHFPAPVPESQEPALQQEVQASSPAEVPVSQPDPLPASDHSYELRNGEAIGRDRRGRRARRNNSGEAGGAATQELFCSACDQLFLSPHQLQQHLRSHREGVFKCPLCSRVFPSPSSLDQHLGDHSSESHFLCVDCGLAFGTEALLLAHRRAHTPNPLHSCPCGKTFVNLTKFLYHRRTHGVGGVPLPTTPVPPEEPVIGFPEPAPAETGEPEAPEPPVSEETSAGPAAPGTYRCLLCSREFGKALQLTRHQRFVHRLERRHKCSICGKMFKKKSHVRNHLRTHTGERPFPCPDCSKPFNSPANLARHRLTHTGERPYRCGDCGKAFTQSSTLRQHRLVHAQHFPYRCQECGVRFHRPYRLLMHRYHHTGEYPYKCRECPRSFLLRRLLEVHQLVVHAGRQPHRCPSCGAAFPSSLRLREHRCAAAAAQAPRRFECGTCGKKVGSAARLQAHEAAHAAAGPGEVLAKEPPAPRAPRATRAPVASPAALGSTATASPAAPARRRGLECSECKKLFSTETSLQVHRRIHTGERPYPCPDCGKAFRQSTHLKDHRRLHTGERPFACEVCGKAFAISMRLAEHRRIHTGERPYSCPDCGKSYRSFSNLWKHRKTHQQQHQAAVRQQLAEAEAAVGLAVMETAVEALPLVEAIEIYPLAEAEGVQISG
UniProt O95229: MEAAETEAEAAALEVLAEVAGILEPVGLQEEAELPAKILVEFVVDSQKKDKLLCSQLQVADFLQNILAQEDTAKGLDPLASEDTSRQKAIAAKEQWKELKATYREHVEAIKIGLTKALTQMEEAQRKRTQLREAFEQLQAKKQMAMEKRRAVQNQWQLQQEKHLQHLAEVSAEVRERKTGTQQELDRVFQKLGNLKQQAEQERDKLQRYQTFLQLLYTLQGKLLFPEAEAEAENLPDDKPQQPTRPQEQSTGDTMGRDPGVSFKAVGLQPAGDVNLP
UniProt Q8NHG8: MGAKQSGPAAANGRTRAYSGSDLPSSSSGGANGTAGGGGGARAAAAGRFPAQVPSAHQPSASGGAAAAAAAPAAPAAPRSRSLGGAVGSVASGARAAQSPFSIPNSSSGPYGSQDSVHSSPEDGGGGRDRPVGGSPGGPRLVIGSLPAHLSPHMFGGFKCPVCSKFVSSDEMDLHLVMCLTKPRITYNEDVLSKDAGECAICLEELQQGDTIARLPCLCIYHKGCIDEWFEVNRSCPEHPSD
UniProt O43257, whole entry: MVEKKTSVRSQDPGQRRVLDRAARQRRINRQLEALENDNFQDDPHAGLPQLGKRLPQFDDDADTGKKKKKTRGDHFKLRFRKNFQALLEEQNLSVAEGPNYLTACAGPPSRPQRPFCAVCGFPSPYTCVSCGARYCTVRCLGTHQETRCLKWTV
UniProt O95218: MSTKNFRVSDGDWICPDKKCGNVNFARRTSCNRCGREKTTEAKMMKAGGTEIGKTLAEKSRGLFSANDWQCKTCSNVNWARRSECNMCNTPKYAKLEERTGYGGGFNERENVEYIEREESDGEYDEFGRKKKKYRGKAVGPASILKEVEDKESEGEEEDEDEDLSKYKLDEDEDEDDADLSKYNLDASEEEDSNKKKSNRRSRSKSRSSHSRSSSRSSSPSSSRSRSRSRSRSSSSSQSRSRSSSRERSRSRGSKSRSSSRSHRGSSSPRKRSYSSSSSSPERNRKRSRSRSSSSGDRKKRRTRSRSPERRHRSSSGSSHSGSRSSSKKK
UniProt Q96NB3: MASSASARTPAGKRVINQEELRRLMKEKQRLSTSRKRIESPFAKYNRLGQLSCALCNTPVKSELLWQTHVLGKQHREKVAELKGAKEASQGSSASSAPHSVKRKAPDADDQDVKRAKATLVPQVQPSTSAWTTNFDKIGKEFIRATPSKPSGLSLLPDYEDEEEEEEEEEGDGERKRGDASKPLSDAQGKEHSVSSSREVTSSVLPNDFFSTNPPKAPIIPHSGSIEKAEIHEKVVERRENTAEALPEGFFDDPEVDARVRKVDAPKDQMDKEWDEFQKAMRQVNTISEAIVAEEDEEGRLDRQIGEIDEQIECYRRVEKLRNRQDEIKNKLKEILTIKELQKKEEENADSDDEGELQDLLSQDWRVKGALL

Row | Target | dose-dependent thermal stabilisation call
1 | ZNF740 (UniProt Q8NDX6) | inactive: 0
2 | ZNF800 (UniProt Q2TB10) | inactive: 0
3 | ZNF787 (UniProt Q6DD87) | inactive: 0
4 | ZNHIT2 (UniProt Q9UHR6) | inactive: 0
5 | ZNF384 (UniProt Q8TF68) | inactive: 0
6 | ZNF629 (UniProt Q9UEG4) | inactive: 0
7 | ZNF609 (UniProt O15014) | inactive: 0
8 | ZNFX1 (UniProt Q9P2E3) | inactive: 0
9 | ZNF574 (UniProt Q6ZN55) | inactive: 0
10 | ZWINT (UniProt O95229) | inactive: 0
11 | ZWILCH (UniProt Q9H900) | inactive: 0
12 | ZYG11BL (UniProt Q7Z7L7) | inactive: 0
13 | ZNRF2 (UniProt Q8NHG8) | inactive: 0
14 | ZNF828 (UniProt Q96JM3) | inactive: 0
15 | ZNHIT1 (UniProt O43257) | inactive: 0
16 | ZRANB2 (UniProt O95218) | inactive: 0
17 | ZNF830 (UniProt Q96NB3) | inactive: 0

From entry 7 as far as 10, copied from above:
Row | Target | dose-dependent thermal stabilisation call
7 | ZNF609 (UniProt O15014) | inactive: 0
8 | ZNFX1 (UniProt Q9P2E3) | inactive: 0
9 | ZNF574 (UniProt Q6ZN55) | inactive: 0
10 | ZWINT (UniProt O95229) | inactive: 0
